{"source": "PubChem BioAssay AID540276", "about": "(National Center for Advancing Translational Sciences (NCATS), 2011)", "note": "Screen size: about 300,000 compounds; about 5,400 (1.8%) were called active. The inconclusive results got no clear call from the source; some entries with a clear call stand among them for comparison. Calls come from the whole dose curve; tested in HEK293 cells. Potencies of inconclusive entries are doubtful fits and often do not repeat. % is set by controls: 0 for no effect and ±100 for the full control effect; potency is the fitted concentration of half-maximal effect."}
{"test": "qHTS for inhibitors of binding or entry into cells for Marburg Virus", "conditions": "Marburg virus pseudotyped entry inhibition, cell reporter; activity change, negative = inhibition: at 37.8 µM (top of the series) unless noted"}
{"smiles": "COc1ccc(N2CCn3c2nc2c3c(=O)n(CCCc3ccccc3)c(=O)n2C)c(OC)c1", "Potency": "inconclusive: 3.26 µM [inhibitor, full curve]"}
{"smiles": "CN(Cc1cnccn1)C(=O)CC1C(=O)NCCN1CC(c1ccccc1)c1ccccc1", "note": "(centres undefined)", "Potency": "inactive"}
{"smiles": "Cc1ccc(-c2csc(NC(=O)C[n+]3cc(-c4ccc(C)cc4)n4c3CCC4)n2)cc1", "Potency": "inactive"}
{"smiles": "COc1ccc(CNC(=O)COC(=O)CC(NC(N)=O)c2ccc(Cl)cc2)cc1OC", "note": "(centres undefined)", "Potency": "inconclusive: 3.16 µM [activator, full curve, poor fit]"}
{"smiles": "CCN(CC)CCCNC(=O)CSc1nc2nc(C)c(Cc3c(F)cccc3Cl)c(C)n2n1", "Potency": "inconclusive: 10 µM [inhibitor, partial curve, poor fit]"}
{"smiles": "CCOc1ccc(CNC(=O)CCn2c(=O)oc3ccccc32)cc1OC", "Potency": "inactive"}
{"smiles": "Cc1ccc(Cc2cnc(NC(=O)C3CCCO3)s2)cc1", "note": "(centres undefined)", "Potency": "inconclusive: 7.08 µM [inhibitor, partial curve, poor fit]"}
{"smiles": "Cc1ccc(N(Cc2cc3ccccc3[nH]c2=O)C(=O)c2cccc(Cl)c2)cc1", "Potency": "inconclusive: 11.2 µM [inhibitor, partial curve, poor fit]"}
{"smiles": "CN(C)c1ccc(NC(=O)CN2CCN(CC(=O)Nc3ccc(F)cc3)CC2)cc1", "Potency": "inconclusive: 1.41 µM [activator, partial curve]"}
{"smiles": "O=C(O)Cc1ccc(O)c(O)c1", "Potency": "inconclusive: 10 µM [inhibitor, partial curve]"}
{"smiles": "Cc1cc(C)c(S(=O)(=O)NCC23C=CC(O2)C2C(=O)N(c4ccccc4)C(=O)C23)c(C)c1", "note": "(centres undefined)", "Potency": "inconclusive: 0.651 µM [activator, single point]"}
{"smiles": "CC1=CC[C@@H](C)O[C@@]2(C1)C(=O)N(Cc1ccc(Br)cc1)c1ccccc12", "Potency": "inactive"}
{"smiles": "O=C(Nc1ccc2nc3ccccc3nc2c1)c1ccccc1", "Potency": "inconclusive: 0.447 µM [activator, partial curve, poor fit]"}
{"smiles": "Cc1cc(C)n(/C(=C\\N(C)C)C(=O)c2ccc(Cl)cc2)n1", "Potency": "inactive"}
{"smiles": "O=C1CCCN1c1cc(Cl)cc(Cl)c1", "Potency": "inconclusive: 5.62 µM [activator, partial curve, poor fit]"}
{"smiles": "COc1ccc(OCc2nc3ccc(S(=O)(=O)Nc4ccccc4Cl)cc3[nH]2)cc1", "Potency": "inactive"}
{"smiles": "O=S(=O)(O)c1cccc2c(N=Nc3ccc(O)c4ncccc34)cccc12", "Potency": "inactive"}
{"smiles": "CS(=O)(=O)NCCCCNc1ccc(C(F)(F)F)cc1[N+](=O)[O-]", "Potency": "inconclusive: 6.31 µM [inhibitor, single point]"}
{"smiles": "Cc1ccc(OCC(=O)NNC(=O)C2CSC3(C)CCC(=O)N23)cc1", "note": "(centres undefined)", "Potency": "inconclusive: 1.26 µM [inhibitor, single point]"}
{"smiles": "CSc1ccc(CN2CCN(C(=O)c3ccncc3)CC2)cc1", "Potency": "inconclusive: 31.6 µM [inhibitor, partial curve, poor fit]"}
{"smiles": "CC(=O)c1cccc(S(=O)(=O)N2CCCC(c3nc4c(nnn4Cc4ccccc4Cl)c(=O)[nH]3)C2)c1", "note": "(centres undefined)", "Potency": "inconclusive: 0.891 µM [inhibitor, full curve, poor fit]"}
{"smiles": "CCn1c(Cn2nnc(-c3ccccc3)n2)nnc1SCC(=O)Nc1cccc(C(C)=O)c1", "Potency": "inactive"}
{"smiles": "O=C1ON=C(c2ccccc2)/C1=C/c1ccc(-c2ccccc2[N+](=O)[O-])o1", "Potency": "inconclusive: 22.4 µM [inhibitor, partial curve, poor fit]"}
{"smiles": "CN1CCN(c2ccc(S(=O)(=O)N3CCCCC3)cc2NC(=O)c2ccc3ccccc3c2)CC1", "Potency": "inconclusive: 14.1 µM [inhibitor, partial curve, poor fit]"}
{"smiles": "Cc1cc(NS(=O)(=O)c2ccc(NC(=O)/C=C/c3ccc(Br)cc3)cc2)no1", "Potency": "inactive"}
{"smiles": "CCOc1ccc(-n2c(C)cc(/C=N\\NC(=O)CC(=O)NC3CCCCC3)c2C)cc1", "Potency": "inconclusive: 6.31 µM [inhibitor, single point]"}
{"smiles": "CCCCC1CCC(c2nc(-c3ccccn3)no2)CC1", "note": "(centres undefined)", "Potency": "inconclusive: 35.5 µM [inhibitor, single point]"}
{"smiles": "O=c1c(C=NCc2cccs2)c(O)n(C2CCCCC2)c(=O)n1C1CCCCC1", "Potency": "inconclusive: 0.562 µM [inhibitor, full curve, poor fit]"}
{"smiles": "NC1=C(Cl)C(=O)c2ccccc2C1=O", "Potency": "inconclusive: 15.8 µM [inhibitor, partial curve, poor fit]"}
{"smiles": "CCOc1ccc2nc(C)cc(Nc3ccc4c(c3)OCCO4)c2c1", "Potency": "inconclusive: 8.91 µM [inhibitor, partial curve, poor fit]"}
{"smiles": "COc1ccc(C(=O)C2CCN(CC(=O)Nc3cc(C)cc(C)c3)CC2)cc1", "Potency": "inconclusive: 22.4 µM [inhibitor, single point]"}
{"smiles": "Cc1nc2ccccc2n1CCOc1ccccc1", "Potency": "inconclusive: 7.94 µM [inhibitor, partial curve, poor fit]"}
{"smiles": "CCC(C)NC(=O)CSC1=Nc2ccccc2C2=NC(CC(=O)NCc3ccccc3)C(=O)N12", "note": "(centres undefined)", "Potency": "inactive"}
{"smiles": "CCCCCCCCOC(=O)C1=C(C)Nc2nnnn2C1c1cccs1", "note": "(centres undefined)", "Potency": "inconclusive: 15.8 µM [inhibitor, single point]"}
{"smiles": "COc1ccc(CNc2nc3ccccc3n2CCN2CCCCC2)c(OC)c1", "Potency": "inconclusive: 25.1 µM [inhibitor, single point]"}
{"smiles": "O=C(Nc1ccccc1N1CCCCC1)c1ccc(-c2ccc(Cl)cc2)o1", "Potency": "inconclusive: 0.447 µM [inhibitor, full curve, poor fit]"}
{"smiles": "CN(CCCOc1ccccc1Br)Cc1ccccc1", "Potency": "inconclusive: 35.5 µM [inhibitor, single point]"}
{"smiles": "Cc1ccc(N2C(=O)/C(=C\\c3ccco3)SC2=S)cc1", "Potency": "inactive"}
{"smiles": "CCOC(=O)N1CCN(S(=O)(=O)c2ccc(C(=O)N(CCN(C)C)c3nc4ccc(CC)cc4s3)cc2)CC1", "Potency": "inconclusive: 35.5 µM [inhibitor, single point]"}
{"smiles": "CCOCCCNC(=O)c1ccc(N2CCCC2)c(NS(=O)(=O)c2ccc(C)cc2)c1", "Potency": "inconclusive: 4.61 µM [inhibitor, full curve, poor fit]"}
{"smiles": "NCCCNC(=O)Cn1c(=O)c2c3c(sc2n(Cc2ccccc2)c1=O)CCCC3", "Potency": "inconclusive: 35.5 µM [inhibitor, partial curve, poor fit]"}
{"smiles": "CCCn1nnc2c(=O)oc3ccccc3c21", "Potency": "inactive"}
{"smiles": "c1ccn(-c2ncnc3sc4c(c23)CCCC4)c1", "Potency": "inactive"}
{"smiles": "COc1cc(NC(=O)CSCC(=O)Nc2cccc(C(F)(F)F)c2)c(Cl)cc1Cl", "Potency": "inconclusive: 32.6 µM [inhibitor, single point]"}
{"smiles": "CCOc1ccc(CCNC(=O)c2nnc(CS(=O)(=O)c3ccccc3)o2)cc1OCC", "Potency": "inconclusive: 11.2 µM [inhibitor, partial curve, poor fit]"}
{"smiles": "COc1ccccc1/C=C/C(=O)OCCN1CCOCC1", "Potency": "inconclusive: 12.6 µM [activator, single point]"}
{"smiles": "CC1(C)CC(=O)C(C(N)=NC(=O)c2ccc([N+](=O)[O-])cc2)=C(O)C1", "Potency": "inactive"}
{"smiles": "CCC(=O)N1CCN(c2ccccc2NC(=O)c2ccc([N+](=O)[O-])o2)CC1", "Potency": "inconclusive: 11.2 µM [inhibitor, partial curve, poor fit]"}
{"smiles": "CCN1C(=O)C(CC(=O)Nc2ccc(OC)cc2)N(CCCN2CCN(c3ccc(F)cc3)CC2)C1=S", "note": "(centres undefined)", "Potency": "inconclusive: 35.5 µM [inhibitor, single point]"}
{"smiles": "CC(=O)c1ccc(-c2ccc(C(=O)N3CCCc4ccccc43)o2)cc1", "Potency": "inconclusive: 35.5 µM [inhibitor, single point]"}
{"smiles": "Cc1nc(=O)c(-c2ccccc2)c(C)n1CC1CCCO1", "note": "(centres undefined)", "Potency": "inconclusive: 1.26 µM [inhibitor, single point]"}
{"smiles": "COC(=O)C1=C(C)NC2=C(C(=O)CCC2)C1c1cn(Cc2ccc(Br)cc2)nc1-c1ccccc1", "note": "(centres undefined)", "Potency": "inconclusive: 8.91 µM [inhibitor, partial curve, poor fit]"}
{"smiles": "CC(C)CCCCCCCCCCCCC(=O)NCC(=O)NC1C(C)OC(Nc2ncnc3nc[nH]c23)C(O)C1O", "note": "(centres undefined)", "Potency": "inconclusive: 0.0794 µM [inhibitor, full curve, poor fit]"}
{"smiles": "COCCCNC(=O)C(=O)NC1CCCCCC1", "Potency": "inconclusive: 35.5 µM [activator, partial curve, poor fit]"}
{"smiles": "CCNC(=O)CCSc1nc(C)cc(C)n1", "activity change, negative = inhibition": "inconclusive: 14.5% [activator] [at 46.1 µM]"}
{"smiles": "CCCOc1ccc(N2C(=O)CC(SC(=NC)Nc3ccc(F)cc3)C2=O)cc1", "note": "(centres undefined)", "Potency": "inconclusive: 35.5 µM [inhibitor, single point]"}
{"smiles": "O=C(CNc1cccc2ccccc12)c1ccc([N+](=O)[O-])cc1", "Potency": "inconclusive: 0.316 µM [inhibitor, partial curve, poor fit]"}
{"smiles": "C=CCOc1ccccc1CNc1ccc2[nH]c(=O)[nH]c2c1", "Potency": "inactive"}
{"smiles": "CN(Cc1ccc(Cl)cc1)C(=O)COC(=O)CSc1ccc([N+](=O)[O-])cc1", "Potency": "inconclusive: 3.16 µM [inhibitor, single point]"}
{"smiles": "Cc1ccc(CN2CCC(C(=O)NCCC(C)C)CC2)o1", "Potency": "inconclusive: 1.78 µM [inhibitor, partial curve, poor fit]"}
{"smiles": "COC(=O)C1=C(C)N=c2s/c(=C/c3ccoc3)c(=O)n2C1c1ccccc1", "note": "(centres undefined)", "Potency": "inconclusive: 5.17 µM [inhibitor, partial curve, poor fit]"}
{"smiles": "CC(C)c1ccc(Oc2cccc(C(=O)/C(C#N)=C/N(C)C)c2)cc1", "Potency": "inconclusive: 11.2 µM [inhibitor, partial curve, poor fit]"}
{"smiles": "COc1ccc(C(OC(=O)c2ccco2)C(=O)NC2CCCC2)cc1", "note": "(centres undefined)", "Potency": "inactive"}
{"smiles": "O=C(CCc1nc2ccccc2[nH]c1=O)N/N=C/c1ccccc1", "Potency": "inconclusive: 14.1 µM [activator, single point]"}
